This note sets out measurements from patent US5925731A (Takeda Chemical Industries, Ltd., priority 1995, dated 1999).

HELM strings list residues between dots; [ac] is acetyl, [am] amide, other brackets name non-standard units.

A short description of one data set: general procedure: solution-phase peptide synthesis; WSCD.HCl/HOBt; HONB active esters. The conditions noted are these: coupling step.
The substance “hexamethyleniminocarbonyl-Leu-D-Trp(CHO)-D-Nle-D-Asp(Php)-OBzl” had a step yield of 98%.

The same data set, now with this note: late stage modification step.
With “Hexamethyleniminocarbonyl-Nle-D-Trp(COOMe)-D-Nle-D-Asp(Php)”, the step yield came out at 36%.

With “PEPTIDE1{[HMIC].I.[D-Trp(COOMe)].[D-Nle].[dD]}|CHEM1{[Php]}$PEPTIDE1,CHEM1,5:R3-1:R1$$$V2.0”, the step yield is recorded as 31%.

“PEPTIDE1{[HMIC].L.[D-Trp(CHO)].[D-Nle].[dD]}|CHEM1{[Php]}$PEPTIDE1,CHEM1,5:R3-1:R1$$$V2.0” yielded a step yield of 25%.

The substance “PEPTIDE1{[HMIC].L.[D-Trp(COOMe)].[D-Nle].D}|CHEM1{[Php]}$PEPTIDE1,CHEM1,5:R3-1:R1$$$V2.0” showed a step yield of 24%.

For the substance “PEPTIDE1{[HMIC].L.[D-Trp(COOMe)].[D-Nle].[dD]}|CHEM1{[2FPhp]}$PEPTIDE1,CHEM1,5:R3-1:R1$$$V2.0”, the step yield is reported as 9%.

As for “PEPTIDE1{[HMIC].L.[D-Trp(COOMe)].[D-Nle].[dD]}|CHEM1{[2MeO-5MePhp]}$PEPTIDE1,CHEM1,5:R3-1:R1$$$V2.0”, the step yield came out at 12%.

“PEPTIDE1{[HMIC].L.[D-Trp(COOMe)].[D-Nle].[dD]}|CHEM1{[2MeOPhp]}$PEPTIDE1,CHEM1,5:R3-1:R1$$$V2.0” displayed a step yield of 23%.

“PEPTIDE1{[HMIC].L.[D-Trp(COOMe)].[D-Nle].[dD]}|CHEM1{[3MeOPhp]}$PEPTIDE1,CHEM1,5:R3-1:R1$$$V2.0” had a step yield of 34%.

“PEPTIDE1{[HMIC].L.[D-Trp(COOMe)].[D-Nle].[dD]}|CHEM1{[Php]}$PEPTIDE1,CHEM1,5:R3-1:R1$$$V2.0” returned a step yield of 21%.

For the substance “PEPTIDE1{[HMIC].L.[D-Trp(COOMe)].[D-Nle].[dE].[Php]}$$$$V2.0”, the step yield is recorded as 28%.

Take “hexamethyleniminocarbonyl-Leu-D-Trp(COOMe)-D-Nle-D-Asp (2FPhp)-OBzl”: the step yield worked out at 67%.

Turning to “hexamethyleniminocarbonyl-Leu-D-Trp(COOMe)-D-Nle-D-Asp (3MeOPhp)-OBzl”, the step yield is 79%.

Turning to “hexamethyleniminocarbonyl-Leu-D-Trp(COOMe)-D-Nle-D-Asp(2MeO-5MePhp)-OBzl”, the step yield is 70%.

Substance “hexamethyleniminocarbonyl-Leu-D-Trp(COOMe)-D-Nle-D-Asp(2MeOPhp)-OBzl” displayed a step yield of 69%.

On to “hexamethyleniminocarbonyl-Leu-D-Trp(COOMe)-D-Nle-D-Asp-OBzl”, for which the step yield is given as 59%.
